Results from PMC12591158.
Results are given in words; binding and its absence hold for the method and conditions named. Binding seen in cells or lysates may run through a third protein. Some entries that bind do so weakly or less than the wild type. Tags and fused reporters may be left off the sequences shown.

The chains behind the UniProt entries cited, without tags or fusion partners. Where a name states a change or a piece, a line headed by the entry shows the natural chain unless it says otherwise.
UniProt Q14790, whole entry, looked up, stated change not applied: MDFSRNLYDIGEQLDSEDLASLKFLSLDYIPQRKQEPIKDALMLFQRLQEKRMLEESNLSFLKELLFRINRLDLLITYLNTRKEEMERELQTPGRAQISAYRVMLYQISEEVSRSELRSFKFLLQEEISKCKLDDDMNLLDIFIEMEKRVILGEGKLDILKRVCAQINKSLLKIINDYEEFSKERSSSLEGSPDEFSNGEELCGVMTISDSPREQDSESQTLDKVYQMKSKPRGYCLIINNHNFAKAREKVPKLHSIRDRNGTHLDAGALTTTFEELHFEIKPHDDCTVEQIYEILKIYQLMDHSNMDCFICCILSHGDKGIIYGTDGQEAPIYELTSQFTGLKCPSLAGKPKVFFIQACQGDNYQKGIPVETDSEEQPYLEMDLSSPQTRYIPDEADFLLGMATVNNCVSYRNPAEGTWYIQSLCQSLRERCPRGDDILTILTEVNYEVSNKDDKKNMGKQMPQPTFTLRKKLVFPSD

Biological target: Myc-caspase-8-C/A (catalytic dead mutant of caspase-8, C360A) (human) (UniProt Q14790)
Assay: co-IP

Binder: SLTENKYSQLDEEQPMEID (domain or fragment, UniProt P0DTC6 43-61) [GFP-ORF6-C (C-terminal domain of SARS-CoV-2 ORF6)]
- binding: binds
